{"sequences": {"note": "Amino acid sequences for entries named in this document (tags omitted). A change or cut given only in a name is not applied to a line headed by its entry.", "UniProt P11473": "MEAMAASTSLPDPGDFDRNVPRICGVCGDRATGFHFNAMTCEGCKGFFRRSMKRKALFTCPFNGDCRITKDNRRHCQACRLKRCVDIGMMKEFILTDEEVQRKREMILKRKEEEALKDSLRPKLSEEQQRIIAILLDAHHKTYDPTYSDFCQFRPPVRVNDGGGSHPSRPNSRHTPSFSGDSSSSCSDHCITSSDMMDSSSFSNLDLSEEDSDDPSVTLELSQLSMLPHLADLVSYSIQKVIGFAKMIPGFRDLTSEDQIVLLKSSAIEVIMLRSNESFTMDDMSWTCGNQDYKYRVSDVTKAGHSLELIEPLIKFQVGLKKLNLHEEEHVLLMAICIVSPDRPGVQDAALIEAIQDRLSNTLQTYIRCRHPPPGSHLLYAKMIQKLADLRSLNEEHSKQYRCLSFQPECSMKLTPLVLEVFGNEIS"}, "source": "PubChem BioAssay AID504847", "about": "(National Center for Advancing Translational Sciences (NCATS), 2011)", "note": "Among all 400,000 compounds or so, about 3,700 (0.93%) were called active. Inconclusive means that the source gave no clear call. Such entries were picked first, then a sample of the others. The call rests on the fitted dose curve; in most records, active means well fitted inhibition curve with a large enough effect; inconclusive means small, poorly fitted or top-dose-only effect, or another doubt; inactive means no such curve, though single readings can be large or run the other way. Where the call is inconclusive, the potency comes from a doubtful curve fit. More than one record can exist for a structure, and the calls need not agree. On the % scale 0 is the no-effect control and ±100 the full control effect; potency means the concentration at half of the fitted maximal effect."}
{"molecular_target": "Vitamin D3 receptor (Homo sapiens) (UniProt P11473)", "test": "Inhibitors of the vitamin D receptor (VDR): qHTS", "conditions": "VDR-SRC2-3 peptide fluorescence polarization, 2 h; max response, negative = inhibition: active compounds read low", "how_it_was_run": "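Fluorescence polarization assay measuring small-molecule disruption of VDR binding to the coregulator peptide SRC2-3. Compounds were pin-transferred (23 nl) into the reagent mix and incubated 2 h at room temperature before reading.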"}
{"smiles": "COc1ccc2[nH]cc(CCNc3ncnc4ccc(-c5ccoc5)cc34)c2c1", "Potency": "inconclusive: 31.6 µM [inhibitor, partial curve, poor fit]"}
{"smiles": "COc1cc(/C=C2\\SC(=Nc3ccccc3)N(CCc3c[nH]c4ccccc34)C2=O)ccc1OC(C)C(=O)O", "note": "(centres undefined)", "Potency": "inconclusive: 70.8 µM [inhibitor, single point]"}
{"smiles": "O=C(CCS(=O)(=O)c1ccc(F)cc1)Nc1nc(-c2ccncc2)cs1", "Potency": "inconclusive: 56.2 µM [inhibitor, partial curve, poor fit]"}
{"smiles": "CC(=O)Nc1ccccc1OCc1cnc(Cl)s1", "max response, negative = inhibition": "inactive: 4.9%"}
{"smiles": "Cc1ccc(CCN=c2c([N+](=O)[O-])nn(-c3ccccc3)n2O)cc1", "max response, negative = inhibition": "inactive: -10.3%"}
{"smiles": "O=C1C(Cl)=C(NS(=O)(=O)c2ccc([N+](=O)[O-])cc2)C(=O)c2ccccc21", "Potency": "active: 22.4 µM"}
{"smiles": "CCN1CCN(C(c2ccc(C(F)(F)F)cc2)c2ccc3cccnc3c2O)CC1", "note": "(centres undefined)", "Potency": "active: 25.1 µM"}
{"smiles": "CCc1ccc(NC(=O)c2ccc3c(=O)n4nc(Nc5ccccc5C)sc4nc3c2)cc1", "max response, negative = inhibition": "inactive: 10.2%"}
{"smiles": "O=C(Nc1nnc(CCS(=O)(=O)c2ccc3ccccc3c2)s1)c1cccs1", "Potency": "inconclusive: 89.1 µM [inhibitor, partial curve, poor fit]"}
{"smiles": "O=C(NC(=S)NCc1ccccc1)c1cccs1", "Potency": "inconclusive: 89.1 µM [inhibitor, single point]"}
{"smiles": "Cc1ccc(C(=O)Nc2ncc3c(Cl)cccc3n2)cc1", "max response, negative = inhibition": "inactive: -22.3%"}
{"smiles": "Cc1cc(NC(=O)CCC(=O)N(CC2CCCO2)C(C(=O)NC2CCCC2)c2ccccc2C)no1", "note": "(centres undefined)", "max response, negative = inhibition": "inactive: 6.87%"}
{"smiles": "Oc1ccc2ccccc2c1CN1CCCCC1", "max response, negative = inhibition": "inactive: -11.3%"}
{"smiles": "CC1Cc2ccccc2N1S(=O)(=O)c1cccc(C(=O)NCc2ccccn2)c1", "note": "(centres undefined)", "Potency": "inconclusive: 89.1 µM [inhibitor, partial curve, poor fit]"}
{"smiles": "Cn1nnnc1Sc1ncnc2scc(-c3cccc(Br)c3)c12", "Potency": "inconclusive: 56.2 µM [inhibitor, partial curve, poor fit]"}
{"smiles": "CC(=O)c1cccc(NC(=O)CSc2nnc3ccc(-c4ccc(Cl)cc4)nn23)c1", "Potency": "inconclusive: 35.5 µM [inhibitor, single point]"}
{"smiles": "CC(=O)N1CCN(c2ccc(NCc3ccc(-c4cccc(Cl)c4)o3)cc2)CC1", "Potency": "inconclusive: 56.2 µM [inhibitor, partial curve, poor fit]"}
{"smiles": "CC(=O)Oc1cc(-c2coc3cc(OC(C)=O)c(OC(C)=O)c(OC(C)=O)c3c2=O)cc(OC(C)=O)c1OC(C)=O", "Potency": "active: 17.8 µM"}
{"smiles": "Cc1ccc2c(c1)C1C3CCC(C3)C1S(=O)N2", "note": "(centres undefined)", "Potency": "inconclusive: 89.1 µM [inhibitor, single point]"}
{"smiles": "Cc1ccc(CONC(=O)c2ccc(C)cc2)cc1", "max response, negative = inhibition": "inactive: 18.2%"}
{"smiles": "O=c1oc2cc(O)ccc2s1", "Potency": "active: 28.2 µM"}
{"smiles": "CC(=O)O[C@@H]1[C@@]2(C)O[C@H]2CC[C@]23O[C@H]2[C@H](OC3=O)C2=C(C)C(=O)O[C@@]21O", "max response, negative = inhibition": "inactive: -5.38%"}
{"smiles": "Clc1ccc(OCc2nc(-c3ccc(-n4cccc4)cc3)no2)cc1", "Potency": "inconclusive: 89.1 µM [inhibitor, partial curve]"}
{"smiles": "CC(C)(C)Cc1nnc(NC(=O)CN2C(=O)c3ccccc3C2=O)s1", "max response, negative = inhibition": "inactive: -3.11%"}
{"smiles": "Cc1ccc(C=Nc2cc([N+](=O)[O-])ccc2C)s1", "Potency": "inconclusive: 100 µM [inhibitor, partial curve, poor fit]"}
{"smiles": "Oc1ccc(Cl)cc1C1C=C(c2ccc3c(c2)OCO3)NC(c2c(F)cccc2Cl)N1", "note": "(centres undefined)", "Potency": "inconclusive: 56.2 µM [inhibitor, partial curve, poor fit]"}
{"smiles": "CC1(C)Cc2nc3oc4c(N5CCOCC5)ncnc4c3cc2CO1", "max response, negative = inhibition": "inactive: -3.53%"}
{"smiles": "CCc1cc2c(=O)c(-c3cnn(-c4ccccc4)c3)c(C)oc2c(CN2CCCCC2)c1O", "max response, negative = inhibition": "inactive: 0.425%"}
{"smiles": "O=[N+]([O-])c1cccc(C(=S)N2CCN(c3ccccc3)CC2)c1", "Potency": "inconclusive: 79.4 µM [inhibitor, partial curve, poor fit]"}
{"smiles": "COc1ccccc1NC(=O)N(Cc1ccco1)Cc1cc2cccc(C)c2[nH]c1=O", "Potency": "inconclusive: 89.1 µM [inhibitor, single point]"}
{"smiles": "CC(/C=N/n1c(-c2cc(C)[nH]n2)n[nH]c1=S)=C\\c1ccccc1", "Potency": "inconclusive: 89.1 µM [inhibitor, single point]"}
{"smiles": "CCOc1ccc(NC(=O)C/C(C)=N/NC(=O)COc2ccc(Br)cc2C)cc1", "max response, negative = inhibition": "inactive: 7.91%"}
{"smiles": "NC(=NCCc1ccccc1)NS(=O)(=O)c1ccccc1F", "max response, negative = inhibition": "inactive: 1.03%"}
{"smiles": "COC(=O)/C=C\\C(C#N)(C#N)N=Cc1ccc(OC)cc1", "Potency": "active: 12.6 µM"}
{"smiles": "CC(=O)Nc1cc2c(c(Cl)c1Cl)-c1ccccc1C2=O", "Potency": "inconclusive: 79.4 µM [inhibitor, single point]"}
{"smiles": "CCCCCCn1c(N2CCC(C(N)=O)CC2)nc2c1c(=O)n(C)c(=O)n2C", "Potency": "inconclusive: 56.2 µM [inhibitor, partial curve, poor fit]"}
{"smiles": "Cc1c(Cl)cccc1NC(=O)CSc1sc2c(O)cc(=O)[nH]c2c1C#N", "max response, negative = inhibition": "inactive: 1.29%"}
{"smiles": "O=C(NNC(=S)Nc1ccc(C(=O)O)c(O)c1)c1ccncc1", "Potency": "inconclusive: 25.1 µM [inhibitor, partial curve, poor fit]"}
{"smiles": "O=C(Cc1ccc(NC(=O)N2CCCCc3ccccc32)cc1)NCc1ccccc1Br", "max response, negative = inhibition": "inactive: -0.39%"}
{"smiles": "Nc1ccc(N)c(C(=O)O)c1", "Potency": "inconclusive: 89.1 µM [inhibitor, single point]"}
{"smiles": "Cc1cccc(NC(=O)c2ccc([N+](=O)[O-])o2)n1", "Potency": "inconclusive: 89.1 µM [inhibitor, single point]"}
{"smiles": "O=C(CN1C(=O)/C(=C/c2ccccc2F)SC1=S)NC1C=CS(=O)(=O)C1", "note": "(centres undefined)", "max response, negative = inhibition": "inactive: -4.05%"}
{"smiles": "CCc1ccc(Nc2n[n+](-c3ccccc3)c(-c3c(Cl)cccc3Cl)s2)cc1", "Potency": "inconclusive: 100 µM [inhibitor, single point]"}
{"smiles": "CC(C)c1nc(N(C)S(C)(=O)=O)nc(-c2ccc(F)cc2)c1/C=C/C(O)CC(O)CC(=O)O", "note": "(centres undefined)", "Potency": "inconclusive: 63.1 µM [inhibitor, partial curve, poor fit]"}
{"smiles": "Cc1ccc(C)c(NC(=S)Nc2cccc3cnccc23)c1", "max response, negative = inhibition": "inactive: -25.6%"}
{"smiles": "CC1(C)CC(=O)C=C(c2cccc(Br)c2)C1", "Potency": "inconclusive: 89.1 µM [inhibitor, partial curve]"}
{"smiles": "COc1ccc(C(=O)/C=C/c2ccccc2F)c(OC(=O)c2ccc([N+](=O)[O-])cc2)c1", "Potency": "inconclusive: 44.7 µM [inhibitor, partial curve, poor fit]"}
{"smiles": "Cc1nc(N/N=C/c2ccc(O)cc2)c2cnn(-c3ccccc3)c2n1", "Potency": "inconclusive: 89.1 µM [inhibitor, single point]"}
{"smiles": "CC1(C)Cc2[nH]c(=S)c(C#N)cc2CO1", "Potency": "inconclusive: 28.2 µM [inhibitor, partial curve]"}
{"smiles": "CCCCCn1c(NC(=O)c2ccco2)c(S(=O)(=O)c2ccc(C)cc2)c2nc3ccccc3nc21", "Potency": "inconclusive: 56.2 µM [inhibitor, partial curve, poor fit]"}
{"smiles": "CN1CCc2c(sc3c2C(=O)NC(c2ccccn2)N3)C1", "note": "(centres undefined)", "Potency": "active: 25.1 µM"}
{"smiles": "c1nc(SSc2ncnc3nc[nH]c23)c2[nH]cnc2n1", "Potency": "active: 25.1 µM"}
{"smiles": "CCOC(=O)c1cnc2c(cnn2CC)c1NN=C(C)C", "Potency": "inconclusive: 44.7 µM [inhibitor, partial curve, poor fit]"}
{"smiles": "COc1cccc(CNC(=O)CCN2C(=O)[C@@H]3Cc4ccccc4CN3C2=O)c1", "Potency": "inconclusive: 8.91 µM [inhibitor, partial curve, poor fit]"}
{"smiles": "Cc1ccccc1Oc1cc(-n2ncc(Cl)c(Cl)c2=O)ncn1", "Potency": "inconclusive: 44.7 µM [inhibitor, partial curve, poor fit]"}
{"smiles": "CCCCC(=O)OC1CCC2C3CCc4cc(O)ccc4C3CC[C@]12C", "note": "(some centres undefined)", "max response, negative = inhibition": "inactive: -4.61%"}
{"smiles": "CCOc1ccc(NC2=C(OC)C(=O)c3ccccc3C2=O)cc1", "Potency": "inconclusive: 28.2 µM [inhibitor, full curve]"}
{"smiles": "Cc1ccc(Nc2n[nH]c(=S)s2)cc1F", "Potency": "inconclusive: 89.1 µM [inhibitor, single point]"}
{"smiles": "Cc1cccc(-n2c(C)c(-c3ccccc3)[nH]c2=S)c1", "Potency": "inconclusive: 79.4 µM [inhibitor, single point]"}
{"smiles": "CC(C)n1c(SCc2ccccc2F)nc2c1c(=O)n(C)c(=O)n2C", "Potency": "inconclusive: 12.6 µM [inhibitor, partial curve, poor fit]"}
{"smiles": "S=C(Nc1ccccc1Cl)N(Cc1ccccc1)Cc1cccnc1", "max response, negative = inhibition": "inactive: 0.54%"}
{"smiles": "O=C(c1ccncc1)N1N=C(c2ccc(Br)cc2)CC1c1ccccc1O", "note": "(centres undefined)", "max response, negative = inhibition": "inactive: -0.431%"}
{"smiles": "C[C@H](NC(=O)c1nc[nH]c1C(=O)N[C@@H](Cc1ccccc1)C(=O)OC(C)(C)C)C(=O)OC(C)(C)C", "max response, negative = inhibition": "inactive: -9%"}
{"smiles": "CC(C)(C)OC(=O)NCCCC1=CC2=CC(=O)C(C)(OC(=O)c3cnc4ccccc4n3)C(=O)C2=CO1", "note": "(centres undefined)", "max response, negative = inhibition": "inactive: -24%"}
{"smiles": "COC(=O)CCCC1=CC2=C(c3ccccc3)C(=O)C(C)(OC(=O)C3CCCC3)C(=O)C2=CO1", "note": "(centres undefined)", "Potency": "inconclusive: 89.1 µM [inhibitor, single point]"}
{"smiles": "CC(=O)Nc1ccc(NC(=O)COc2ccc3c(c2)CCC3)cc1", "max response, negative = inhibition": "inactive: 5.93%"}
{"smiles": "NS(=O)(=O)c1ccc(CCNC(=O)Cc2cccs2)cc1", "max response, negative = inhibition": "inactive: -3.57%"}
{"smiles": "CC(=O)Nc1ccc(C(=O)NC2CCSc3ccccc32)cc1", "note": "(centres undefined)", "max response, negative = inhibition": "inactive: 0.453%"}
{"smiles": "COC(=O)N1C(=O)[C@](c2ccc(Cl)cc2)(C(C)C)N1C(=O)OC", "Potency": "inconclusive: 70.8 µM [inhibitor, partial curve]"}
